## Primary screen of a compound library

Sequences of proteins named here, by UniProt entry; tags and fusion partners are left off. Residues count along the entry.
UniProt P9WPC5, whole entry: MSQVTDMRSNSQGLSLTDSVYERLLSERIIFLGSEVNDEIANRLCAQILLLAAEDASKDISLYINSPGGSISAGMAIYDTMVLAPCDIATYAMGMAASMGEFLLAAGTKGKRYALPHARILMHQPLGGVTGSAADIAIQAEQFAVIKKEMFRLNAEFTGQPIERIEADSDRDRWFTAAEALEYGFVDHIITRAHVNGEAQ
UniProt P9WPC3, whole entry partner: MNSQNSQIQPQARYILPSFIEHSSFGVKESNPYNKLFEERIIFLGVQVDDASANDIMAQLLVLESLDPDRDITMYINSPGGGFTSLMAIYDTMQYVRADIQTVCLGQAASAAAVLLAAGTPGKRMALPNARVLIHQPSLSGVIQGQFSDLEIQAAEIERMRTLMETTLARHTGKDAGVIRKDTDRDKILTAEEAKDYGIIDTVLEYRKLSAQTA
UniProt P9WNZ1, whole entry: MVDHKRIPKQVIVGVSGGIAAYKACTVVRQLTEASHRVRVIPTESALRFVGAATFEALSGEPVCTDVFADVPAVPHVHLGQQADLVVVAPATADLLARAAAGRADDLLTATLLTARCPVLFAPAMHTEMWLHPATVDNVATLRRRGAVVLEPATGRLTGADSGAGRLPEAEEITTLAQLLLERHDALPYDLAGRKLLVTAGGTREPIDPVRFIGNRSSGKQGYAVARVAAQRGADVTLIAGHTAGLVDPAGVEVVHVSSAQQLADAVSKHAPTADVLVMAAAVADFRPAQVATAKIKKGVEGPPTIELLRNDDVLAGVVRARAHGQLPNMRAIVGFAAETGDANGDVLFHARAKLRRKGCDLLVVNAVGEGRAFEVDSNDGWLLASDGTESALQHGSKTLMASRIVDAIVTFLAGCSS
UniProt Q8IDJ8, 1-583: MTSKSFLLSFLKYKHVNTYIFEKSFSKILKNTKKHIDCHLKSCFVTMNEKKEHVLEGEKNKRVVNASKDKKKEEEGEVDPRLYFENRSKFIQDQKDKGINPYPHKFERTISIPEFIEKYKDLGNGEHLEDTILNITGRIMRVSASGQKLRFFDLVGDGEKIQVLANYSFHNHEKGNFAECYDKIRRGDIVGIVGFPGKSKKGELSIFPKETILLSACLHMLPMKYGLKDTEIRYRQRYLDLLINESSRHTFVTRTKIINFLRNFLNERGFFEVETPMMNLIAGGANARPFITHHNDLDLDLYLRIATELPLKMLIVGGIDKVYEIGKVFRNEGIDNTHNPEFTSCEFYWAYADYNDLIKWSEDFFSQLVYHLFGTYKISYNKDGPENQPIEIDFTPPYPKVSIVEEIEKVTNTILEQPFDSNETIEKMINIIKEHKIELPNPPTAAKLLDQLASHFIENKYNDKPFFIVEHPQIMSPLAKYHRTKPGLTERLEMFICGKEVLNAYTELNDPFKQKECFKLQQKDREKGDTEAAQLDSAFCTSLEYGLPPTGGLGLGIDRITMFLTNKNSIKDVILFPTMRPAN

Values are the deposited “Percent Effect”, in %.
How 0% and 100% were set is not recorded. Most values in the screen are low, and negative values occur.
The compounds are a random part of those screened.
Two or more numbers in one place are separate tests of the same structure; such repeats can differ widely.

ClpP1P2: 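ClpP1P2, Mycobacterium tuberculosis (UniProt P9WPC5 and UniProt P9WPC3). Protease assay of ClpP1P2, read by the AMC dye that it sets free. Concentration: 50 µM. Higher reads as stronger inhibition, judged from the few compounds that gave an IC50. Most other retested compounds had strongly negative values. Of about 69,000 compounds tested this way, about 10 (0.015%) reached 50% or more in at least one test.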
CoaBC: 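Coenzyme A biosynthesis protein CoaBC, Mycobacterium tuberculosis (UniProt P9WNZ1). Enzyme assay of CoaBC with a phosphate dye (Biomol Green) read at 650 nm. Concentration: 30 µM. Higher reads as stronger inhibition, judged from the few compounds that gave an IC50. Most strong results did not repeat in a second test. Of about 67,000 compounds tested this way, about 40 (0.06%) reached 50% or more in at least one test.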
PfKRS1: 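Lysine-tRNA ligase, Plasmodium falciparum 3D7 (UniProt Q8IDJ8). Enzyme assay of the cytosolic lysyl-tRNA synthetase in 384-well plates, read by luminescence. Compounds at 30 µM. Higher reads as stronger inhibition, judged from the few compounds that gave an IC50. Of about 69,000 compounds tested this way, about 49 (0.071%) reached 50% or more in at least one test.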
Leishmania in macrophages: 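Cell assay of Leishmania donovani living inside macrophages; the read-out is not stated. Compounds at 30 µM. The record gives no direction; compounds that gave an IC50 in retests scored well above the rest, so higher reads as stronger inhibition. Size under these conditions: about 69,000 compounds, about 1,000 of them at 50% or above in at least one test.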

- CCC(NC1CCN(S(C)(=O)=O)CC1)c1cccs1 (configuration not stated) | ClpP1P2: -4.98%; CoaBC: 1.533%; PfKRS1: 5.753%; Leishmania in macrophages: 6.082%
- COC(=O)N1CCc2ccccc2C1C(=O)NCc1ccco1 (configuration not stated) | ClpP1P2: 0.9742%; CoaBC: 1.48%; PfKRS1: 7.028%; Leishmania in macrophages: 7.026% and 7.694%
- Cc1nc(CN2CCCC(CCc3ccccc3F)C2)c[nH]1 (configuration not stated) | ClpP1P2: -14.15%; CoaBC: -20.63%; PfKRS1: 4.466%; Leishmania in macrophages: 15.03%
- [H][C@@]12CC[C@H](Oc3cccc(F)c3)[C@]1([H])CN(C(=O)c1cncnc1)C2 | Leishmania in macrophages: -17.47%
- O=C(CCn1ccc2cc(Br)ccc21)NC[C@@H]1CCCN2CCCC[C@H]12 | ClpP1P2: -12.83%; CoaBC: -1.09%; PfKRS1: -4.803%
- CN1CCN(c2cc(CNC(=O)c3cccnc3O)ccn2)CC1 | ClpP1P2: -24.35%; CoaBC: 0%; PfKRS1: 1.694%; Leishmania in macrophages: 19.34%
- Cn1cccc1C(=O)NCc1cn2c(n1)CN(Cc1cccnc1)CC2.O=C(O)C(F)(F)F.O=C(O)C(F)(F)F | Leishmania in macrophages: 5.106%
- Cc1cnc(C(=O)N(C)Cc2nc(-c3ccccn3)no2)cn1 | ClpP1P2: 8.915%; CoaBC: 13.29%; PfKRS1: -1.612%; Leishmania in macrophages: -16.27%
- Cc1ncc(CN2CCC(c3nc(O)cc(-c4ccsc4)n3)CC2)cn1 | ClpP1P2: -14.99%; CoaBC: -0.3681%; PfKRS1: 0.3147%; Leishmania in macrophages: 7.268%
- Cc1nnc2n1CCN(CCOc1ccc(C(C)(C)C)cc1)C2 | ClpP1P2: -2.728%; CoaBC: 4.707%; PfKRS1: 2.684%; Leishmania in macrophages: 22.05%
- Cc1csc(CNC(=O)N(C)Cc2ccncc2)n1 | ClpP1P2: -22.69%; CoaBC: -1.37%; PfKRS1: -0.2812%; Leishmania in macrophages: 24.84%
- Cc1cc(CN2CCN(Cc3ccccc3F)CC2)no1 | ClpP1P2: 20.61%; CoaBC: -1.566%; PfKRS1: 1.806%; Leishmania in macrophages: 16.95%
- CC(NCc1ccccc1Cl)c1ccc2[nH]c(=O)[nH]c2c1 (configuration not stated) | ClpP1P2: -6.665%; CoaBC: -0.5155% and 22.15%; PfKRS1: -0.6741%; Leishmania in macrophages: 27.67%
- O=C(O)C(F)(F)F.[H][C@@]12COC[C@]1(CN1CCOCC1)CN(S(C)(=O)=O)C2 | Leishmania in macrophages: 4.583%
- Cn1c(=O)ccn(CC(=O)NCC2Cc3ccccc3O2)c1=O (configuration not stated) | ClpP1P2: -1.039%; CoaBC: 1.594%; PfKRS1: 8.16%; Leishmania in macrophages: 22.11%
- O=C(NCCNc1ncccn1)C1CCN(c2ncccn2)CC1 | ClpP1P2: 9.956%; CoaBC: 8.432%; PfKRS1: 3.239%; Leishmania in macrophages: 25.05%
- CN(C)c1cc(CNCc2ccc(N3CCOCC3)cc2)ccn1 | ClpP1P2: 2.046%; CoaBC: -11.61%; PfKRS1: 6.695%; Leishmania in macrophages: 38.17%
- Cc1cccc(C(=O)N2CCC(Cc3cnc4[nH]ccc4c3)CC2)n1 | ClpP1P2: -4.504%; CoaBC: 3.01%; PfKRS1: 1.937%; Leishmania in macrophages: 39.84%
- CCNC(=O)[C@@H]1CCCN1C1(C(=O)NC)CCCCC1.Cl | Leishmania in macrophages: -2.22%
- Cc1ccc(CN2CCC3(CC2)CC(N2CCN(C)CC2)CO3)s1.O=C(O)C(F)(F)F.O=C(O)C(F)(F)F.O=C(O)C(F)(F)F (configuration not stated) | Leishmania in macrophages: 35.32%
- CCc1nnc(CN(C)C2CCCN(Cc3noc(C4CC4)n3)C2)o1 (configuration not stated) | ClpP1P2: 14.08%; CoaBC: 1.695%; PfKRS1: -1.535%; Leishmania in macrophages: -4.289%
- NC(=O)c1cc2c(nc1CC1CCCCO1)CCC2 (configuration not stated) | ClpP1P2: 7.568%; CoaBC: 1.595%; PfKRS1: -1.039%; Leishmania in macrophages: 13.4%
- c1cc2nccc(CC3CCCN(C4CCOCC4)CC3)c2cn1 (configuration not stated) | ClpP1P2: 4.256%; CoaBC: 3.632%; PfKRS1: 5.72%
- CC(=O)N1CCC2(CC1)CCN(C(=O)c1cccc(C(F)(F)F)c1)C2 | ClpP1P2: 1.035%; CoaBC: 9.664%; PfKRS1: 2.554%; Leishmania in macrophages: -1.618%
- Cn1ccc(C(=O)NCc2ccccc2Cn2ccnc2)cc1=O | ClpP1P2: 11.01%; CoaBC: 3.24%; PfKRS1: 0.8818%; Leishmania in macrophages: 15.37%
- COc1ccc(OC)c(C(C)NC(=O)c2nn(C)c(C)c2Br)c1 (configuration not stated) | ClpP1P2: 8.158%; CoaBC: 7.744%; PfKRS1: 3.549%; Leishmania in macrophages: -3.706%
- Cn1nnc2c(sc3nc(N4CCOCC4)c4c(c32)CCC4)c1=O | ClpP1P2: -5.877%; CoaBC: 0.241%; PfKRS1: -1.556%; Leishmania in macrophages: 4.156%
- CCn1c(Cn2cncn2)nnc1C1CCN(C2CCNCC2)CC1 | ClpP1P2: -2.833%; CoaBC: 1.018%; PfKRS1: 7.451%; Leishmania in macrophages: 2.1% and 30.39%
- CCOC(=O)c1ccc(CNC(=O)c2ccc(C)nc2)o1 | ClpP1P2: -5.159%; CoaBC: 0.1965%; PfKRS1: 1.126%; Leishmania in macrophages: 8.21%
- Cc1cc(NCCO)nc(N2CCC(Cc3ccccc3)CC2)c1C#N | ClpP1P2: -8.804%; CoaBC: 6.65%; PfKRS1: 1.512%
- CCN1CCCC1CN(Cc1ccoc1)CC1CCN(CCOC)CC1 (configuration not stated) | ClpP1P2: -15.05%; CoaBC: 7.108%; PfKRS1: -1.654%; Leishmania in macrophages: 2.936%
- O=C(c1ccc2[nH]cnc2c1)N1CCCC1Cn1cccn1 (configuration not stated) | ClpP1P2: 2.568%; CoaBC: 2.335%; PfKRS1: 6.143%; Leishmania in macrophages: -0.6023%
- CN1CCCC(c2nccnc2-c2cccc(Cl)c2)C1 (configuration not stated) | ClpP1P2: -5.879%; CoaBC: 0.4932%; PfKRS1: -0.2547%; Leishmania in macrophages: 22.46%

For reference, 4 entries once more:

For Cc1ncc(CN2CCC(c3nc(O)cc(-c4ccsc4)n3)CC2)cn1 the result was ClpP1P2: -14.99%; CoaBC: -0.3681%; PfKRS1: 0.3147%; Leishmania in macrophages: 7.268%.
For c1cc2nccc(CC3CCCN(C4CCOCC4)CC3)c2cn1 (configuration not stated) the result was ClpP1P2: 4.256%; CoaBC: 3.632%; PfKRS1: 5.72%.
For Cn1nnc2c(sc3nc(N4CCOCC4)c4c(c32)CCC4)c1=O the result was ClpP1P2: -5.877%; CoaBC: 0.241%; PfKRS1: -1.556%; Leishmania in macrophages: 4.156%.
For COc1ccc(OC)c(C(C)NC(=O)c2nn(C)c(C)c2Br)c1 (configuration not stated) the result was ClpP1P2: 8.158%; CoaBC: 7.744%; PfKRS1: 3.549%; Leishmania in macrophages: -3.706%.

Measurements from “University of Dundee, Small-Polar-MMV Screening Library” (2021), ChEMBL document CHEMBL3988442.